# Several values for one entry are separate records, joined by “and”; a condition that tells them apart may be missing. Equal values may be shown once. Hit rate of the full screen: of about 400,000 compounds, about 3,700 (0.93%) were called active. This list was built around the results that the source calls inconclusive (neither active nor inactive); the mix of calls is not that of the screen. Calls come from the whole dose curve; as a rule, active = well fitted inhibition curve with a large enough effect; inconclusive = small, poorly fitted or top-dose-only effect, or another doubt; inactive = no such curve, though single readings can be large or run the other way. Potencies beside an inconclusive call are fits to weak or partial responses and may not hold up.
# Protein sequences, listed by entry. Tags and fused reporters are not part of them. Lines headed by an entry give the natural chain unless they say otherwise; changes in a name come on top.
# UniProt P11473: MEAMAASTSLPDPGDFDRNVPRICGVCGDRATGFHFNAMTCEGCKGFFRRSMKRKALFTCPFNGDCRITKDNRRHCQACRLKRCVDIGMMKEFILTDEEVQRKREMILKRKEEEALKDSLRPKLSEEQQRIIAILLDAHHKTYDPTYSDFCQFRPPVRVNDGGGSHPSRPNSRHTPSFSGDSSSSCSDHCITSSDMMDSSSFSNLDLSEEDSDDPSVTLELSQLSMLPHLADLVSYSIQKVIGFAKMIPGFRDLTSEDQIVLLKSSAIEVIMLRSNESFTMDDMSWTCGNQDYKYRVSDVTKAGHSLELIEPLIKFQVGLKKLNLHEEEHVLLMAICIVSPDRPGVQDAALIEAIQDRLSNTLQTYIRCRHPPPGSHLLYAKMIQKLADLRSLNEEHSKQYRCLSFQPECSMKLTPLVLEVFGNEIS
# Target: Vitamin D3 receptor (Homo sapiens) (UniProt P11473)
# Experiment: Inhibitors of the vitamin D receptor (VDR): qHTS
# Conditions: VDR-SRC2-3 peptide fluorescence polarization, 2 h; max response, negative = inhibition: stronger effect = lower value
# Procedure, shortened: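 Fluorescence polarization assay measuring small-molecule disruption of VDR binding to the coregulator peptide SRC2-3. Compounds were pin-transferred (23 nl) into the reagent mix and incubated 2 h at room temperature before reading.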
# % is set by controls: 0 for no effect and ±100 for the full control effect; potency is the fitted concentration of half-maximal effect.
SMILES,Potency,"max response, negative = inhibition"
COc1ccc(-n2ncc3c2CC(C)(C)CC3NC(=O)c2c(C)cc(=O)oc2C)cc1 (stereo unspecified),"inconclusive: 31.6 µM [inhibitor, partial curve, poor fit]",–
CC(C)(C)N(Cc1ccccc1)C(=O)COC(=O)C1CC(=O)N(Cc2ccccc2)C1 (stereo unspecified),–,inactive: -1.62%
COc1ccc(-c2cn(-c3ccccc3)c(=S)[nH]2)cc1OC,–,inactive: 0.123%
Oc1ccc(/C=N/Nc2ncc(Br)cn2)c(O)c1,–,inactive: 6.76%
O=C(c1cccs1)N1CCN(C2CCCCC2)CC1,–,inactive: 6.36%
CCCCN(CC)Cc1ccc(CNC(=O)Nc2ccc(OCC)cc2)o1,–,inactive: 2.91%
CN1CCN(c2ncc3nc(-c4cn(C)c5ccccc45)c(=O)n(-c4ccccc4)c3n2)CC1,"inconclusive: 50.1 µM [inhibitor, partial curve, poor fit]",–
O=C(CCCN1C(=O)/C(=C/c2ccccc2Cl)SC1=S)N1CCCC1,"inconclusive: 89.1 µM [inhibitor, single point]",–
Cc1cccc(CNc2cc(-c3ccccc3Cl)ncn2)c1,"inconclusive: 50.1 µM [inhibitor, single point]",–
COc1ccc(C)cc1S(=O)(=O)N1CCN(C/C=C/c2ccccc2)CC1,–,inactive: -27.5%
Clc1nssc1=Nc1ccccc1,active: 44.7 µM,–
CCc1nc(NCCN2CCOCC2)c(C#N)c2c1CCCC2,–,inactive: -3.15%
O=C(NC1CCC(O)CC1)c1ccc(S(=O)(=O)NCc2ccco2)cc1 (stereo unspecified),"inconclusive: 100 µM [inhibitor, single point]",–
CCOC(=O)c1ccc(NC(=O)Cn2cc(C(=O)C3CC3)c3ccccc32)cc1,"inconclusive: 56.2 µM [inhibitor, partial curve, poor fit]",–
O=C(Cn1nc(-c2ccc(Cl)cc2)c2ccccc2c1=O)NCC1CCCO1 (stereo unspecified),"inconclusive: 25.1 µM [inhibitor, single point]",–
COc1cc(/C=C2\SC(=S)N(CCC(=O)Nc3ccccn3)C2=O)cc(OC)c1OC,"inconclusive: 89.1 µM [inhibitor, single point]",–
C[C@H](C(=O)O)c1cccc(Oc2ccccc2)c1,–,inactive: 0.1%
Cc1ccc(NC(=O)C2CCCN(S(=O)(=O)c3c(C)n[nH]c3C)C2)c(C)c1 (stereo unspecified),"inconclusive: 89.1 µM [inhibitor, partial curve, poor fit]",–
Cc1c(NC(=S)N/C(=N/S(=O)(=O)c2ccc(Cl)cc2)c2ccccc2)c(=O)n(-c2ccccc2)n1C,–,inactive: -0.231%
CC(=O)N1CC(=O)N(c2ccccc2)C1=O,–,inactive: -16.9%
C=C1C(=O)O[C@@H]2[C@H]1[C@@H](OC(=O)/C(C)=C/C)C/C(C)=C\C(=O)/C=C(\C)[C@@H]2O,"inconclusive: 56.2 µM [inhibitor, partial curve, poor fit]",–
COc1ccc(OCC(=O)NC(=S)NNC(=O)COc2ccc(Br)cc2Cl)cc1,"inconclusive: 79.4 µM [inhibitor, single point]",–
CCc1cc(SC#N)cc(CC)c1NC(=O)CCl,"inconclusive: 56.2 µM [inhibitor, partial curve, poor fit]",–
Cc1cccc(CS(=O)(=O)c2ncc(Cl)c(C(=O)Nc3nnc(C(C)C)s3)n2)c1,active: 14.1 µM and active: 8.91 µM,–

SMILES,Potency,"max response, negative = inhibition"
COc1ccc(N2C(=O)[C@H]3CCC=C[C@H]3[C@@H]2c2ccccc2Br)cc1,"inconclusive: 79.4 µM [inhibitor, partial curve]",–
Cc1ccc(C2(C)NC(=O)N(CC(=O)NNC(=O)c3ccccc3F)C2=O)cc1 (stereo unspecified),"inconclusive: 50.1 µM [inhibitor, single point]",–
COc1ccc(CCCc2nnc(SCc3nc4ccccc4c(=O)[nH]3)n2C)cc1,"inconclusive: 70.8 µM [inhibitor, partial curve]",–
CC(=O)OC[C@H]1O[C@@H](Sc2cccc3cccnc23)[C@H](OC(C)=O)[C@@H](OC(C)=O)[C@H]1OC(C)=O,"inconclusive: 89.1 µM [inhibitor, single point]",–
COc1cccc(NC(=O)CCC2CCN(C(=O)c3cncs3)CC2)c1,"inconclusive: 3.16 µM [inhibitor, full curve, poor fit]",–
Brc1ccc(N/N=C(/N=Nc2nn[nH]n2)c2ccccc2)cc1,"inconclusive: 89.1 µM [inhibitor, single point]",–
COc1ccccc1NC(=O)CSc1nnc(CC(=O)Nc2ccccc2F)n1C,–,inactive: 5.11%
O=C(O)C1=NN(c2ccccc2)C(=O)C1,–,inactive: -0.56%
COc1nccnc1NS(=O)(=O)c1ccc(NC(=S)NC(=O)/C=C/c2ccccc2)cc1,"inconclusive: 89.1 µM [inhibitor, single point]",–
COc1ccc(NS(=O)(=O)c2ccc(S(=O)(=O)N3CCOCC3)cc2)cc1,"inconclusive: 44.7 µM [inhibitor, partial curve]",–
O=C(/C=C/c1ccc(Cl)cc1)Nc1ccc(N2CCOCC2)cc1,"inconclusive: 70.8 µM [inhibitor, partial curve]",–
C=CCn1cccc(/C=C/C(=O)c2ccc(C(C)(C)C)cc2)c1=S,"inconclusive: 50.1 µM [inhibitor, partial curve, poor fit]",–
O=C(CCc1ccccc1)NNC(=O)Nc1ccccc1,–,inactive: 20.8%
O=C(O)c1ccc(-c2ccc(-c3ccccc3)cc2)o1,active: 89.1 µM,–
CC(=O)Nc1cccc(NC(=O)CSc2ccc(-c3ccco3)nn2)c1,–,inactive: -6.24%
Cn1ncc(Br)c1C(=O)N1CCCCCC1,–,inactive: 5.37%
N#C/C(=C\c1ccc(O)c(O)c1)C(=O)NCCCCc1ccccc1,"inconclusive: 39.8 µM [inhibitor, single point]",–
C=CCC(C)(NCc1ccccc1)c1ccc(C)cc1 (stereo unspecified),–,inactive: 7.12%
CSCC[C@@H](Nc1nc(-c2ccccc2)nc2c1oc1ccccc12)C(=O)O,–,inactive: -4.76%
CCOC(=O)c1c(-c2ccc(C)cc2)csc1NC(=O)c1cc(=O)c2cc(C)ccc2o1,active: 28.2 µM,–
Cc1[nH]c2ccccc2c1-c1csc(NC(=O)CSCCO)n1,–,inactive: -10.5%
CCOC(=O)c1cnc(Nc2nc3ccccc3o2)nc1CN1CCN(C)CC1,"inconclusive: 70.8 µM [inhibitor, single point]",–
CC(C)C(NC(=O)/C(=C\c1ccco1)NC(=O)c1ccco1)C(=O)O (stereo unspecified),–,inactive: 2.91%
CC(C)c1ccc(OCC(=O)NCCO)cc1,"inconclusive: 50.1 µM [inhibitor, partial curve, poor fit]",–

SMILES,Potency,"max response, negative = inhibition"
CC(C)Sc1ccccc1C(=O)Nc1ccc2c(c1)n(C)c(=O)n2C,–,inactive: -3.42%
CCCCC/C=C\C/C=C\C/C=C\C=C\C(=O)CCCC(=O)O,–,inactive: -6.59% and inactive: -3.38%
C#CCSc1nncn1C(=O)/C=C/c1ccccc1,"inconclusive: 70.8 µM [inhibitor, partial curve]",–
Clc1ccccc1-c1nnc2sc(-c3ccc4c(c3)OCO4)nn12,"inconclusive: 56.2 µM [inhibitor, partial curve, poor fit]",–
CSc1nc2nccc(/C=C\c3ccccc3)n2n1,–,inactive: 11.1%
Cc1cccc(N2CCN(C(=O)CS(=O)(=O)c3cccc4nsnc34)CC2)c1C,–,inactive: 6.14%
O=C(Nc1ccc(Cl)cc1Cl)c1cccc(N2C(=O)C=CC2=O)c1,"inconclusive: 39.8 µM [inhibitor, single point]",–
CCc1ccc(C(=O)NNC(=O)OC)cc1,"inconclusive: 56.2 µM [inhibitor, partial curve, poor fit]",–
Cn1ccnc1Sc1nc2c(c(=O)n(C)c(=O)n2C)n1C,–,inactive: 2.81%
O=C(O)c1cc(C(F)(F)F)nc2c(C(F)(F)F)cccc12,"inconclusive: 79.4 µM [inhibitor, single point]",–
COC(=O)c1c(NC(NC(=O)C(C)C)C(Cl)(Cl)Cl)sc2c1CCC2 (stereo unspecified),–,inactive: -13.2%
O=C(O)c1ccccc1-c1ccccc1C(=O)Nc1cccc(-c2nc3ccccc3o2)c1,–,inactive: -16.5%
COc1ccc(OC)c(N=c2ssnc2Cl)c1,"inconclusive: 39.8 µM [inhibitor, single point]",–
CCOc1ccc2c(c1)C(NC(C)=O)C(=O)N2CCN1CCOCC1 (stereo unspecified),active: 79.4 µM,–
CNC(=S)NCCc1cc2c(OC)ccc(OC)c2[nH]c1=O,"inconclusive: 3.98 µM [inhibitor, partial curve, poor fit]",–
O=C(Nc1ccc2nccnc2c1)Nc1ccccc1Cl,"inconclusive: 25.1 µM [inhibitor, single point]",–
CCCC1CC(C)(/C(C)=N\NC(N)=S)OC1=O (stereo unspecified),–,inactive: -2.88%
COc1cccc2oc3cc(C#CC4(O)CCCCC4)ccc3c(=O)c12,"inconclusive: 56.2 µM [inhibitor, partial curve, poor fit]",–
COc1ccccc1NC(=O)C(=O)/C=C(\O)c1ccccc1,–,inactive: 3.74%
Cc1nccn1CC(=O)N/N=C/c1c[nH]c2ccccc12,–,inactive: 25.1%
COc1ccc(N(CC(=O)Nc2ccc3c(c2)OCCO3)S(=O)(=O)c2c(C)noc2C)cc1,"inconclusive: 89.1 µM [inhibitor, single point]",–
CC(C)N(C(=O)COC(=O)c1cncc(Br)c1)C(C)C,"inconclusive: 79.4 µM [inhibitor, single point]",–
O=C(CCl)N1CCN2C(=O)c3ccccc3C12c1ccc(Cl)cc1 (stereo unspecified),"inconclusive: 89.1 µM [inhibitor, single point]",–

# Whole records from above:
# CSc1nc2nccc(/C=C\c3ccccc3)n2n1 in the list: max response, negative = inhibition: inactive: 11.1%
# Clc1ccccc1-c1nnc2sc(-c3ccc4c(c3)OCO4)nn12 in the list: Potency: inconclusive: 56.2 µM [inhibitor, partial curve, poor fit]
# CCOc1ccc2c(c1)C(NC(C)=O)C(=O)N2CCN1CCOCC1 (stereo unspecified) in the list: Potency: active: 79.4 µM
